{"source": "PubChem BioAssay AID1345085", "about": "(National Center for Advancing Translational Sciences (NCATS), 2018)", "note": "Inconclusive results, whose numbers are uncertain, are shown with a selection of clear calls. Potencies of inconclusive entries are doubtful fits and often do not repeat. Active and inactive are the calls of the source. Calls follow the shape of the dose curve; as a rule, active = well fitted cell-killing curve with a large enough effect; inconclusive = small, poorly fitted or top-dose-only effect, or effect the other way; inactive = no such curve, though single readings can be large or run the other way. % is scaled to controls: 0 for no effect and ±100 for the full control effect; potency is read from the fitted curve at half-maximal effect.", "data": [{"test_system": "HeLa", "assay": "Confirmatory qHTS for gynecologic anti-cancer compounds from libraries of approved drugs and bioactive compounds; also: nearly all actives have a fitted effect of over 55% in size", "conditions": "gynecologic cancer cell panel viability, ATPlite luminescence, 48 h; series mostly up to 57.6 µM; activity change, negative = viability loss: at the top concentration", "how_it_was_run": "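IC50 values derive from an ATPlite ATP-content luminescence assay following 48 h treatment at 37 C. Each compound ran as an 11-concentration, threefold series (57.5 uM to 0.977 nM); HEK 293T served as control line for selectivity index.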", "values": [{"smiles": "Cc1cc(C2CCCCC2)n(O)c(=O)c1", "Potency": "inconclusive: 49.8 µM [rising, partial curve]"}, {"smiles": "CCOc1ccc(Nc2nc(-c3c(C)nc4ccccn34)cs2)cc1", "Potency": "inconclusive: 0.0385 µM [cytotoxic, full curve, poor fit]"}, {"smiles": "COc1ccc2cc3[n+](cc2c1OC)CCc1cc2c(cc1-3)OCO2", "Potency": "inconclusive: 5.44 µM [cytotoxic, full curve]"}, {"smiles": "CNC(=O)CN1CCC(Oc2cc3c(Nc4cccc(Cl)c4F)ncnc3cc2OC)CC1", "Potency": "inconclusive: 8.63 µM [cytotoxic, full curve]"}, {"smiles": "Cc1ccc(-n2[nH]c(C)c(N=Nc3cccc(-c4cccc(C(=O)O)c4)c3O)c2=O)cc1C", "Potency": "inconclusive: 27.3 µM [cytotoxic, partial curve]"}, {"smiles": "CO[C@@]12[C@H](COC(N)=O)C3=C(C(=O)C(C)=C(N)C3=O)N1C[C@@H]1N[C@@H]12", "Potency": "inconclusive: 0.344 µM [cytotoxic, full curve]"}, {"smiles": "N#CC1(c2cccc(C(=O)Nc3cc(Oc4ccc5nc(NC(=O)C6CC6)sc5n4)ccc3F)c2Cl)CC1", "Potency": "inconclusive: 15.3 µM [cytotoxic, partial curve]"}, {"smiles": "CC(=O)OC12COC1CC(O)C1(C)C(=O)C(O)C3=C(C)C(OC(=O)C(O)C(NC(=O)OC(C)(C)C)c4ccccc4)CC(O)(C(OC(=O)c4ccccc4)C21)C3(C)C", "note": "(stereo not drawn)", "Potency": "active: 0.0097 µM"}, {"smiles": "N=C(N)c1ccc(OCCCCCOc2ccc(C(=N)N)cc2)cc1", "Potency": "inconclusive: 0.273 µM [cytotoxic, full curve, poor fit]"}, {"smiles": "CC1=C(CO)C(=O)O[C@@H]([C@@H](C)[C@H]2CC[C@H]3[C@@H]4C[C@H]5O[C@]56[C@@H](O)C=CC(=O)[C@]6(C)[C@H]4CC[C@]23C)C1", "Potency": "active: 2.11 µM"}, {"smiles": "O=C(NOCC1CC1)c1ccc(F)c(F)c1Nc1ccc(I)cc1Cl", "Potency": "active: 9.68 µM"}, {"smiles": "COc1cc(F)c(F)c(Nc2ccc(I)cc2F)c1NS(=O)(=O)C1(CC(O)CO)CC1", "note": "(stereo not drawn)", "Potency": "inconclusive: 7.69 µM [cytotoxic, partial curve, poor fit]"}, {"smiles": "Cc1cc(Nc2nc(N[C@@H](C)c3ncc(F)cn3)ncc2Cl)n[nH]1", "Potency": "active: 0.968 µM"}, {"smiles": "CN1C2CCC1CC(OC(=O)[C@H](CO)c1ccccc1)C2", "note": "(stereo partly drawn)", "activity change, negative = viability loss": "inactive: 23.4%"}, {"smiles": "Cc1cncc2cccc(S(=O)(=O)N3CCCN(C(=O)CN)C[C@@H]3C)c12", "Potency": "inconclusive: 1.53 µM [cytotoxic, full curve]"}, {"smiles": "CCN(CC)CCCC(C)Nc1ccnc2cc(Cl)ccc12", "note": "(stereo not drawn)", "activity change, negative = viability loss": "inactive: -1.82% [at 19.5 µM]"}, {"smiles": "Nc1ncn([C@@H]2O[C@H](CO)[C@@H](O)[C@H]2O)c(=O)n1", "Potency": "inconclusive: 3.85 µM [cytotoxic, full curve]"}, {"smiles": "O=C(O)c1ccc(Nc2ncc3c(n2)-c2ccc(Cl)cc2C(c2c(F)cccc2F)=NC3)cc1", "Potency": "active: 7.69 µM"}, {"smiles": "Cc1ccn(-c2ccc(-c3ncco3)cc2)c(=O)c1-c1ccc2nc(N)ncc2c1", "Potency": "inconclusive: 9.68 µM [cytotoxic, partial curve, poor fit]"}, {"smiles": "CNC(=O)c1nn(C)c2c1C(C)(C)Cc1cnc(Nc3ccc(N4CCN(C)CC4)cc3)nc1-2", "Potency": "active: 1.53 µM"}, {"smiles": "CCc1c2c(nc3ccc(OC(=O)N4CCC(N5CCCCC5)CC4)cc13)-c1cc3c(c(=O)n1C2)COC(=O)[C@]3(O)CC", "activity change, negative = viability loss": "inactive: -8.27%"}, {"smiles": "COc1ccc2c(c1OC)C(=O)O[C@@H]2[C@H]1c2c(cc3c(c2OC)OCO3)CCN1C", "Potency": "inconclusive: 30.6 µM [cytotoxic, single point]"}, {"smiles": "COc1cc(N2CCC(N3CCN(C)CC3)CC2)ccc1Nc1ncc(Cl)c(Nc2ccccc2S(=O)(=O)C(C)C)n1", "Potency": "active: 0.769 µM"}, {"smiles": "NC1(c2ccc(-c3nc4ccn5c(=O)[nH]nc5c4cc3-c3ccccc3)cc2)CCC1", "activity change, negative = viability loss": "inactive: 5.7%"}, {"smiles": "Cn1c(=O)c(F)c(Nc2ccc(I)cc2F)c2c(=O)n(CC(O)CO)cnc21", "note": "(stereo not drawn)", "Potency": "inconclusive: 21.7 µM [cytotoxic, partial curve, poor fit]"}, {"smiles": "CS(=O)(=O)c1ccc(-c2cnc(N)c(C(=O)Nc3ccccc3)n2)cc1", "Potency": "inconclusive: 10.9 µM [cytotoxic, full curve, poor fit]"}, {"smiles": "C[C@]12CCC(=O)C=C1[C@@H]1C[C@@H]1[C@H]1[C@@H]3[C@@H]4C[C@@H]4[C@@]4(CCC(=O)O4)[C@@]3(C)CC[C@@H]12", "Potency": "active: 4.85 µM"}, {"smiles": "Cn1cnc2c(F)c(Nc3ccc(Br)cc3Cl)c(C(=O)NOCCO)cc21", "activity change, negative = viability loss": "inactive: -20%"}, {"smiles": "O=c1[nH]c(=O)n([C@H]2C[C@H](O)[C@@H](CO)O2)cc1C(F)(F)F", "Potency": "inconclusive: 0.109 µM [rising, full curve]"}, {"smiles": "Cc1nc(Nc2ncc(C(=O)Nc3c(C)cccc3Cl)s2)cc(N2CCN(CCO)CC2)n1", "Potency": "inconclusive: 43.2 µM [cytotoxic, single point]"}, {"smiles": "Cc1ccc(C(=O)Nc2ccc(CN3CCN(C)CC3)c(C(F)(F)F)c2)cc1C#Cc1cnc2[nH]ncc2c1", "Potency": "inconclusive: 0.0385 µM [cytotoxic, full curve]"}, {"smiles": "NS(=O)(=O)OC[C@@H]1C[C@@H](n2ccc3c(N[C@H]4CCc5ccccc54)ncnc32)C[C@@H]1O", "Potency": "inconclusive: 43.2 µM [cytotoxic, single point]"}, {"smiles": "CCOC(=O)C1=C(C)NC2=C(C(=O)CC(C)(C)C2)C1c1ccc(-c2ccccc2)cc1", "note": "(stereo not drawn)", "Potency": "inconclusive: 19.3 µM [cytotoxic, partial curve]"}]}]}
